Assay [1] has as its target Y-box binding protein 1 (human (endogenous in BT549 and SUM159PT)) (UniProt P67809). Put plainly: affinity purification with mass spectrometry; mass spectrometry of YBX1 immunoprecipitants from BT549 cells.
The target of assay [2] is Spermidine/Spermine N1-acetyltransferase 1 (human (endogenous in BT549 and SUM159PT)) (UniProt P21673). Put plainly: affinity purification with mass spectrometry; CoIP of SAT1 from BT549 and SUM159PT lysates, IgG controls; proteins of the control excluded, intersection of the two cell lines taken.

Chains of the proteins cited; added tags and fusions are not shown.
UniProt P67809: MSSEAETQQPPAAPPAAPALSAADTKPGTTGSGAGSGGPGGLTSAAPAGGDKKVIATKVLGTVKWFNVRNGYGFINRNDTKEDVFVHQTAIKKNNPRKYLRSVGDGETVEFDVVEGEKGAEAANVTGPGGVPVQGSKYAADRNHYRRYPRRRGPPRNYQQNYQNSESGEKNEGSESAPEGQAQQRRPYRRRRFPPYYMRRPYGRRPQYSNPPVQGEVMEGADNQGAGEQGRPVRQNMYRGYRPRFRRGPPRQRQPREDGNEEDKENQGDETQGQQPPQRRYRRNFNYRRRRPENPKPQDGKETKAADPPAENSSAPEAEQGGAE
UniProt P21673: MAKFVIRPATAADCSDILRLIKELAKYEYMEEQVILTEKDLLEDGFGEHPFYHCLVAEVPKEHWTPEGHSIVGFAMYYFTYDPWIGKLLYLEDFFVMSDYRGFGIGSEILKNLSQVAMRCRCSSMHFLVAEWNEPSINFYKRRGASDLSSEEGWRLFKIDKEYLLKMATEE
UniProt O95714: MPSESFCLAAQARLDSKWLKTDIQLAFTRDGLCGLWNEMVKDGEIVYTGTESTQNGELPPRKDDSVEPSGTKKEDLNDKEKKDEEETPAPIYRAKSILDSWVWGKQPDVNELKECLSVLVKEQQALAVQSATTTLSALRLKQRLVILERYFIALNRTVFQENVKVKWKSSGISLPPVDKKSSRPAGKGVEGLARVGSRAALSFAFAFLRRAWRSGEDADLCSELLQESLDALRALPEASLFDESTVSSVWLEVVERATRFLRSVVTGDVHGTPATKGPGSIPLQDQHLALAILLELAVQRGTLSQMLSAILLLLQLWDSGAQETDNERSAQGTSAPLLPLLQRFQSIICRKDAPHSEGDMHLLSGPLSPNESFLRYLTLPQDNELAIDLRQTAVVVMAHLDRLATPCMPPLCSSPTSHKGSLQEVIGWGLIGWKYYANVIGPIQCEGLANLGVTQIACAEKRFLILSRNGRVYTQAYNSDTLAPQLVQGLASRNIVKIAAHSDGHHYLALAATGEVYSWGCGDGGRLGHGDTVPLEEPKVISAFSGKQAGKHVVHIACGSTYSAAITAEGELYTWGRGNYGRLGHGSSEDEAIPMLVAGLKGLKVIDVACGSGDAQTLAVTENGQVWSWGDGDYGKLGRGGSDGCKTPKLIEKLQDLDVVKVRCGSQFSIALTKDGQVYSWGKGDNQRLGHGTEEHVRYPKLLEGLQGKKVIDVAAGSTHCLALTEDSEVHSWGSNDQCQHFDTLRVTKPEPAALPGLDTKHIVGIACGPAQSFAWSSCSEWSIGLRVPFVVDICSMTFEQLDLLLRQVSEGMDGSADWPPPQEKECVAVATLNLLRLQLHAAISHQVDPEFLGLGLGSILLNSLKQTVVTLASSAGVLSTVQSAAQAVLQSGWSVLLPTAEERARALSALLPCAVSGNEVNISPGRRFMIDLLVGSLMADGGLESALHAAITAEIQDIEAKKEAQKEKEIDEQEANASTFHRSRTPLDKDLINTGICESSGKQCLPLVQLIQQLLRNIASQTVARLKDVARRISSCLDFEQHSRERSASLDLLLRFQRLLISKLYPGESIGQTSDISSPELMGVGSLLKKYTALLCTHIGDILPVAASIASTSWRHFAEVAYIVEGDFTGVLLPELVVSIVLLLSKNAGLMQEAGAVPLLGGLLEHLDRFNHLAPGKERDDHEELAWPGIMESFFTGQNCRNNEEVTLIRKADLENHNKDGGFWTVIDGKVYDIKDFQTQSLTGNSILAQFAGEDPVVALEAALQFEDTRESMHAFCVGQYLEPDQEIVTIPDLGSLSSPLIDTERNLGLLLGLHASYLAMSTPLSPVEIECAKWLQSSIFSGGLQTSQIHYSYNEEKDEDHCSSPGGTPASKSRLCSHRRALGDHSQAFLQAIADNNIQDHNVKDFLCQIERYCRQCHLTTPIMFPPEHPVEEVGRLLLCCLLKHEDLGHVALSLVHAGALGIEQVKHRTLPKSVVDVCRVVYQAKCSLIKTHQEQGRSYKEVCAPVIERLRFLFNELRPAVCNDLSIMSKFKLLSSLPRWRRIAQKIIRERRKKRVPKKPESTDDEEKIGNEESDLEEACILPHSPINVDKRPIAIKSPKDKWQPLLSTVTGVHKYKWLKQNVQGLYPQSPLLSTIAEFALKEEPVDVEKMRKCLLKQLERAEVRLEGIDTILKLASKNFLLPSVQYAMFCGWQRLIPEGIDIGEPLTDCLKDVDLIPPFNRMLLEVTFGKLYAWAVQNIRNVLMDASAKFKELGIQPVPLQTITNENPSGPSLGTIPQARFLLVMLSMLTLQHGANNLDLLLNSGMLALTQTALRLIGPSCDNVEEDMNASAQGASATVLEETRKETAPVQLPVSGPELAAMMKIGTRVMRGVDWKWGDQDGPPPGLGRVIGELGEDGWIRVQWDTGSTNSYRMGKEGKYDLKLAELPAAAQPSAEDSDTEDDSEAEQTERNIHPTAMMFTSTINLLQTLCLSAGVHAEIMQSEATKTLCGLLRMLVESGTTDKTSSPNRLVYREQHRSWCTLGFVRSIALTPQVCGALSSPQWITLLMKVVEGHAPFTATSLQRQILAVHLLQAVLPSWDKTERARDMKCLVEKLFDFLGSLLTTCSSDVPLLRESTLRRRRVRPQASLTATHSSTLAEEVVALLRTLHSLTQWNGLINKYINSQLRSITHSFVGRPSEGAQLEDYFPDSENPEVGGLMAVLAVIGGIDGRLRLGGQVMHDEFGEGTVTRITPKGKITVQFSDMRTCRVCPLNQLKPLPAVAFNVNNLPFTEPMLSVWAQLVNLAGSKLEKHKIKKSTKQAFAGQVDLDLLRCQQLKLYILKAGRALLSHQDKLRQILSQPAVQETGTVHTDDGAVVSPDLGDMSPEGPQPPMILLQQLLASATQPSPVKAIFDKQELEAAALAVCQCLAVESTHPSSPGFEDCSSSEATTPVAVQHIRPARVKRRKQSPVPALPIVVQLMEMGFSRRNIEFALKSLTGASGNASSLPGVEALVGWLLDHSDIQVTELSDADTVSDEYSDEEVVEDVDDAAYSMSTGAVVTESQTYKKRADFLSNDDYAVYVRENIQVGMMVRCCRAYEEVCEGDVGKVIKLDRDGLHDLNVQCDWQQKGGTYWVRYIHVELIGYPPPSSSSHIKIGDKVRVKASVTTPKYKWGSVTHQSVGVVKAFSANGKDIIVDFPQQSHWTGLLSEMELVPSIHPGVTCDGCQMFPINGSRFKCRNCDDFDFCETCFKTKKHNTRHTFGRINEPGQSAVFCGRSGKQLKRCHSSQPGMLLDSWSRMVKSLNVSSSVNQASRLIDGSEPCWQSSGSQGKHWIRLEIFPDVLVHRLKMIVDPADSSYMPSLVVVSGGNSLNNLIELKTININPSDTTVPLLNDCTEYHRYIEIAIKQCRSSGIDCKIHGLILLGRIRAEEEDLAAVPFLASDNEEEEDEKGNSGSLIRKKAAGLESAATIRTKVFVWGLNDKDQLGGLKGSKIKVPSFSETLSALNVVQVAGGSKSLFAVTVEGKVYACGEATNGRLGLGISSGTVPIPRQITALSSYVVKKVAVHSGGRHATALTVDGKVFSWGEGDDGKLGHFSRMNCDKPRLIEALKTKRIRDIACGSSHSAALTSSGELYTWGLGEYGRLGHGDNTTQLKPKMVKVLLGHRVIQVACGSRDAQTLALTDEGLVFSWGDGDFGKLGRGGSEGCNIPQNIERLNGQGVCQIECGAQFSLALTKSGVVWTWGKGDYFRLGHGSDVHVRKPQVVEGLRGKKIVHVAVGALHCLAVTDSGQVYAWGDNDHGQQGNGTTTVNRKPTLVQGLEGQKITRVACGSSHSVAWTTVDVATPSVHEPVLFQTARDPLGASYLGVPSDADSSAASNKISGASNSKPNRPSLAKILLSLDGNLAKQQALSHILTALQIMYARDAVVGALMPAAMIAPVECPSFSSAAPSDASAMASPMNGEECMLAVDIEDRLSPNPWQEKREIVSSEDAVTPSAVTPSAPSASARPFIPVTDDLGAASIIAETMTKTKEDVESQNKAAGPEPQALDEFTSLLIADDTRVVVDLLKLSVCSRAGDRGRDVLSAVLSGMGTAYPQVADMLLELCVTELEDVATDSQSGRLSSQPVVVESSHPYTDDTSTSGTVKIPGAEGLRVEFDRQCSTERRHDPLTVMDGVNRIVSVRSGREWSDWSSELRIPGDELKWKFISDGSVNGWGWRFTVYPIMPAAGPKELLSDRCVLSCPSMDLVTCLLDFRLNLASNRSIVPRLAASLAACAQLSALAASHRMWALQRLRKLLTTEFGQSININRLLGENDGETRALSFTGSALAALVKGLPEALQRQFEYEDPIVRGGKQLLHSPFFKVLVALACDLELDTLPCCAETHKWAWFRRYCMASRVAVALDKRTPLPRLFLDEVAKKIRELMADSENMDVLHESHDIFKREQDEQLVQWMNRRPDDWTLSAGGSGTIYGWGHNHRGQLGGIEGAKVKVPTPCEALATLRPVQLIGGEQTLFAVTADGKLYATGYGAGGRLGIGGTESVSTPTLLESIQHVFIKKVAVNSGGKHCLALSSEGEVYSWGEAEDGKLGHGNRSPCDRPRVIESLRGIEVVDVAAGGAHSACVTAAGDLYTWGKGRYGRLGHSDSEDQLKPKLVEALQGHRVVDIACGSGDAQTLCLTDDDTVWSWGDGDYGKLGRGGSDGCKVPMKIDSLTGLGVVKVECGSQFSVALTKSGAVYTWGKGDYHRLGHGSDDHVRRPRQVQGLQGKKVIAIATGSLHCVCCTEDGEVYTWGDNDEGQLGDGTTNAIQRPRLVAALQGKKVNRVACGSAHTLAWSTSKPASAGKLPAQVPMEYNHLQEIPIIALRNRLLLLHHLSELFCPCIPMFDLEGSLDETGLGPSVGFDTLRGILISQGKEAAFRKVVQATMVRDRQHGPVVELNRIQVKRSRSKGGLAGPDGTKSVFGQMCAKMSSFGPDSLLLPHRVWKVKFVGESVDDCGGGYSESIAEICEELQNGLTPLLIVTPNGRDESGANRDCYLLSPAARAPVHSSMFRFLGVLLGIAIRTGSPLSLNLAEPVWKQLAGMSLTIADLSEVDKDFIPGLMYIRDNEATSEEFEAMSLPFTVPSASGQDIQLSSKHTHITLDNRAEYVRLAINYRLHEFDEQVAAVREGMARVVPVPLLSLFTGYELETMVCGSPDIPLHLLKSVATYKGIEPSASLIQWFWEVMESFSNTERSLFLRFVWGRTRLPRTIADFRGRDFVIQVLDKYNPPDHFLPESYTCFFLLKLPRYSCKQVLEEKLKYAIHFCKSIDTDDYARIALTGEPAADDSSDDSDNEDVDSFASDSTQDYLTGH

Results are given in words; binding and its absence hold for the method and conditions named. In cells and extracts the contact can be indirect. Here binding means that the protein was enriched with, or labelled near, the bait; the list need not be complete.

Consider “E3 ligase HERC2 (from UniProt O95714 1-4834) (enzyme)”, for which the binding entry in assay [1] is reported as “binds”.

As to “Y-box binding protein 1 (from UniProt P67809 1-324)”, the binding entry in assay [2] was “binds”.

B1: E3 ligase HERC5 (enzyme, UniProt Q9UII4 1-1024)
chain: MERRSRRKSRRNGRSTAGKAAATQPAKSPGAQLWLFPSAAGLHRALLRRVEVTRQLCCSPGRLAVLERGGAGVQVHQLLAGSGGARTPKCIKLGKNMKIHSVDQGAEHMLILSSDGKPFEYDNYSMKHLRFESILQEKKIIQITCGDYHSLALSKGGELFAWGQNLHGQLGVGRKFPSTTTPQIVEHLAGVPLAQISAGEAHSMALSMSGNIYSWGKNECGQLGLGHTESKDDPSLIEGLDNQKVEFVACGGSHSALLTQDGLLFTFGAGKHGQLGHNSTQNELRPCLVAELVGYRVTQIACGRWHTLAYVSDLGKVFSFGSGKDGQLGNGGTRDQLMPLPVKVSSSEELKLESHTSEKELIMIAGGNQSILLWIKKENSYVNLKRTIPTLNEGTVKRWIADVETKRWQSTKREIQEIFSSPACLTGSFLRKRRTTEMMPVYLDLNKARNIFKELTQKDWITNMITTCLKDNLLKRLPFHSPPQEALEIFFLLPECPMMHISNNWESLVVPFAKVVCKMSDQSSLVLEEYWATLQESTFSKLVQMFKTAVICQLDYWDESAEENGNVQALLEMLKKLHRVNQVKCQLPESIFQVDELLHRLNFFVEVCRRYLWKMTVDASENVQCCVIFSHFPFIFNNLSKIKLLHTDTLLKIESKKHKAYLRSAAIEEERESEFALRPTFDLTVRRNHLIEDVLNQLSQFENEDLRKELWVSFSGEIGYDLGGVKKEFFYCLFAEMIQPEYGMFMYPEGASCMWFPVKPKFEKKRYFFFGVLCGLSLFNCNVANLPFPLALFKKLLDQMPSLEDLKELSPDLGKNLQTLLDDEGDNFEEVFYIHFNVHWDRNDTNLIPNGSSITVNQTNKRDYVSKYINYIFNDSVKAVYEEFRRGFYKMCDEDIIKLFHPEELKDVIVGNTDYDWKTFEKNARYEPGYNSSHPTIVMFWKAFHKLTLEEKKKFLVFLTGTDRLQMKDLNNMKITFCCPESWNERDPIRALTCFSVLFLPKYSTMETVEEALQEAINNNRGFG
B1: the binding entry in assay [1] is “binds”.

The values above are taken from publication PMC11423137.
